These are literature values, as cited in patent US20230181532A1, “GRANULES FOR 3D PRINTING TECHNOLOGY” (BOARD OF REGENTS, THE UNIVERSITY OF TEXAS SYSTEM, priority 2020, published 2023).

For the data set the following is noted: cited from earlier work.

SMILES strings stand for the structures.

Turning to `COc1ccc2c(c1)c(CC(=O)O)c(C)n2C(=O)c1ccc(Cl)cc1` [IND, Indomethacin], for the setting “acidic pH”, the “solubility in acidic pH” value is reported as “practically insoluble”. Also, for the setting “at 35° C. in water”, the solubility in water was 7 to 9 µg/mL.
